The source of these data is patent US20020119178A1 (priority 2001, published 2002).

The assay concerns human saphenous vein smooth muscle cells (HSV-SMC). Kind of assay: HSV-SMC proliferation assay (MTS), drugs at known concentrations. Type of assay: cell-based. To be noted: 72 h, read-out: IC50 (concentration at which the proliferation is reduced by 50%). Here is the method: A proliferation assay was performed using human saphenous vein smooth muscle cells (HSV-SMC) with cells at passage 3-5. HSV-SMC were established in 96-well plates for 24 hours then serum starved for 48 hours. […] A positive control (100%) was set for cells exposed to DMEM supplemented with 20% FBS only while a negative control (0%) was set for cells exposed to only unsupplemented DMEM. Cells were stimulated for 72 hours with the anti-proliferative drug containing culture media. A solution of [3-(4,5-dimethylthiazol-2-yl)-5-(3-carboxymethoxyphenyl)-2-(4-sulfophenyl)-2H-tetrazolium](MTS, a cell proliferation marker) is then added onto the cells for 3 hours. Absorbance at 490 nm is recorded using a 96-well plate reader.

The structures appear in SMILES notation.

Regarding `COc1cc2c(c(OC)c1OC)-c1ccc(OC)c(=O)cc1[C@@H](NC(C)=O)CC2` [colchicine], the IC50 was determined as 1 nM.
